The values that follow come from publication PMC5437232.

By UniProt entry, the sequences of proteins in these tests, tags left out. Where a name states a change or a piece, a line headed by the entry shows the natural chain unless it says otherwise. Chains listed by the source or under a name are the forms on record and can include a tag or linker. Residues count along the entry.
wild-type MPO precursor (90-kDa apoproMPO/proMPO) expressed in stably transfected HEK cells (P05164, residues 49-745): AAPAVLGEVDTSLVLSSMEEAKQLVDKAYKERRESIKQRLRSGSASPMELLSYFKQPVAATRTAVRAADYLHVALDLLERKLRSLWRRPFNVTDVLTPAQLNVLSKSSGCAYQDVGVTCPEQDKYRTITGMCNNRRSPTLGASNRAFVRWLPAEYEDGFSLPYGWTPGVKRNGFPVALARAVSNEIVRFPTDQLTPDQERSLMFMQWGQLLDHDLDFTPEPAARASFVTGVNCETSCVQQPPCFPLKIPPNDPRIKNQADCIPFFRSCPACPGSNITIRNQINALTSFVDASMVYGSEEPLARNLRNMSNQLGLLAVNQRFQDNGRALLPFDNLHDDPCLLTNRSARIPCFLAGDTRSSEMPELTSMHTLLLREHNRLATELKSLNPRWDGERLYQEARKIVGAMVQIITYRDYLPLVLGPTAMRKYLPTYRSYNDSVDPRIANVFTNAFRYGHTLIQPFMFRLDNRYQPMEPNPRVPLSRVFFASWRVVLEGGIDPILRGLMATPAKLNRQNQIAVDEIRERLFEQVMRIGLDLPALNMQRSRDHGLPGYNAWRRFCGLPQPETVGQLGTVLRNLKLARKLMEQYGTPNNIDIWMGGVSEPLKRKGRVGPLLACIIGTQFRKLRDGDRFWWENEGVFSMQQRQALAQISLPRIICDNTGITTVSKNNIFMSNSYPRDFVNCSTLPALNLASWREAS
MPO double mutant C158A/C319A precursor expressed in stably transfected HEK cells (P05164, form named): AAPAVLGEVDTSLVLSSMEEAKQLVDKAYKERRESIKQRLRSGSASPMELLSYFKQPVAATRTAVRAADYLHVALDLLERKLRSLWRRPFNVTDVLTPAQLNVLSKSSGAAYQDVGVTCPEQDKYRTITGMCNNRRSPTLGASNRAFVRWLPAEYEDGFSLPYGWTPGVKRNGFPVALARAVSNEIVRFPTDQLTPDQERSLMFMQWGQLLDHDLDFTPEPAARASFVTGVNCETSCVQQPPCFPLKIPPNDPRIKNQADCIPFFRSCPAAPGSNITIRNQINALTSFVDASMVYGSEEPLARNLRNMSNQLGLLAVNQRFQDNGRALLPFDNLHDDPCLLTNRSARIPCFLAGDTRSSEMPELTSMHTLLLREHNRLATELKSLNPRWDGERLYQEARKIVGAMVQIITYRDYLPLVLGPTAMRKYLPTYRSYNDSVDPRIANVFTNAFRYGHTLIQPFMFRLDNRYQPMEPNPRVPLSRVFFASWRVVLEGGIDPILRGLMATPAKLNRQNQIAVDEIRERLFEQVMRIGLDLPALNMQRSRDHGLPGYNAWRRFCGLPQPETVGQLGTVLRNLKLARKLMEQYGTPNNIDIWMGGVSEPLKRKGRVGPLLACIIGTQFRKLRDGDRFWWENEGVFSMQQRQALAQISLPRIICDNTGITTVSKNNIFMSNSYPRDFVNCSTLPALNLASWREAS
MPO mutant C319A precursor expressed in stably transfected HEK cells (P05164, form named): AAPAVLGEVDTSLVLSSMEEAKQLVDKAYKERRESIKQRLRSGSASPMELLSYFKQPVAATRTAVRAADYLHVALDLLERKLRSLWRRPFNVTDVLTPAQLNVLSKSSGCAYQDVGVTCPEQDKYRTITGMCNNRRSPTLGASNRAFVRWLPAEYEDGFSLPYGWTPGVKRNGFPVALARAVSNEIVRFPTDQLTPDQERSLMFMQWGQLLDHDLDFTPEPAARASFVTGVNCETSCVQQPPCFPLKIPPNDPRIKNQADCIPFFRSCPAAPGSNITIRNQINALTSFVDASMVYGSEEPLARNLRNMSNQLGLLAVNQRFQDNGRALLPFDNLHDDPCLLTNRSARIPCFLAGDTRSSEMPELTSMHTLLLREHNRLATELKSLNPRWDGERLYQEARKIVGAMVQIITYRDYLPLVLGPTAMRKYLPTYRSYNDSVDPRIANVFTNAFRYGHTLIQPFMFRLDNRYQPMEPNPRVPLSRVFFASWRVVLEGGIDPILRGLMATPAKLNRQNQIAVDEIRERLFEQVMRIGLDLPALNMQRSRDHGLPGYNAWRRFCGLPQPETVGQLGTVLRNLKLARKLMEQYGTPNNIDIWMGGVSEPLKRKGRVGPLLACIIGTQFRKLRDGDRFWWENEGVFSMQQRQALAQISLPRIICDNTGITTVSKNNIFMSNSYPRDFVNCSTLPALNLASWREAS
MPO mutant C158A precursor expressed in stably transfected HEK cells (P05164, form named): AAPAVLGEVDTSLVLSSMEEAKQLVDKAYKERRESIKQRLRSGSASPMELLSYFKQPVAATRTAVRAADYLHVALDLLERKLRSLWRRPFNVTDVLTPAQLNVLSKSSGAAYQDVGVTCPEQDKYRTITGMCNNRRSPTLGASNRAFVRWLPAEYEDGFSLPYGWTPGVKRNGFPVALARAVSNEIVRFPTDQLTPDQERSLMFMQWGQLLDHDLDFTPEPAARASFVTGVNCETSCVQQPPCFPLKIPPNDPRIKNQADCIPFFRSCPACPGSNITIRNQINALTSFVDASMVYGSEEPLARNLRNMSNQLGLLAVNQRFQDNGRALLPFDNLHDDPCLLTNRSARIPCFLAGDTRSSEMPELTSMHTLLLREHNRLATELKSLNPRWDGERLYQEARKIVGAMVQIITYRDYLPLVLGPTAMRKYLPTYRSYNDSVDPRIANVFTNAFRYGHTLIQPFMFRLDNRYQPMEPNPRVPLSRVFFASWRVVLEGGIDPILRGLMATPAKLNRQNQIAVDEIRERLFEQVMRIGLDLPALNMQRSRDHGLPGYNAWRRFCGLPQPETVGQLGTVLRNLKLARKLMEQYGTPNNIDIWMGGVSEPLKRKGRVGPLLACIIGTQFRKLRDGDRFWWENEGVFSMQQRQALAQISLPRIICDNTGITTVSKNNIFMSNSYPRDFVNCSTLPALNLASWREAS

Test [1] deals with T1, calnexin (human (endogenous in HEK293)) (UniProt P27824).
T1 sequence: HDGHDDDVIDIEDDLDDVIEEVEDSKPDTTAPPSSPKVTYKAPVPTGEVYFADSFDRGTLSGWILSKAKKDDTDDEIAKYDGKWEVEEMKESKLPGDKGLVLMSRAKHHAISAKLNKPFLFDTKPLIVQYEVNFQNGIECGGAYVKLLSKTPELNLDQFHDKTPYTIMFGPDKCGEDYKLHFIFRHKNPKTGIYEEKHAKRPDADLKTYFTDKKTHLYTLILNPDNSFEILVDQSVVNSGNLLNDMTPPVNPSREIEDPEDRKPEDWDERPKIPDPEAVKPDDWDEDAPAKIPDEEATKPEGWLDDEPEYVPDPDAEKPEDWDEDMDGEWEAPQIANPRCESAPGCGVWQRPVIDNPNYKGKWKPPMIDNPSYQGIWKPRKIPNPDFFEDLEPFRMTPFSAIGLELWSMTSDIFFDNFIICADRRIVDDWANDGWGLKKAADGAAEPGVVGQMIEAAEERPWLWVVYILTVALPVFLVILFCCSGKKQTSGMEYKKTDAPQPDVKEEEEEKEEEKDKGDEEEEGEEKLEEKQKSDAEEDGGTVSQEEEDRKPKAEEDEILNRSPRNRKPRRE
Briefly: co-IP; data not shown; association of the C158A and C319A/C158A precursors with CLN in HEK cell lines.

Test [2] deals with calreticulin (human (endogenous in HEK293)) (UniProt P27797). Briefly: co-IP; sequential immunoprecipitation of lysates of biosynthetically [35S]-radiolabeled stable transfectants chased 0-4 h: first antibody against CLN or CRT under nondenaturing conditions, release by heating in 2% SDS, 10-fold dilution, then MPO antiserum; SDS-PAGE, autoradiography, PhosphorImager.

Results are given in words; binding and its absence hold for the method and conditions named. Binding seen in cells or lysates may run through a third protein. Some results given as binding are weak or reduced against the parent protein; the word gives no strength.

Take “MPO double mutant C158A/C319A precursor expressed in stably transfected HEK cells (from UniProt P05164 49-745)”: the binding result in test [1] is “binds”.
With “MPO mutant C319A precursor expressed in stably transfected HEK cells (from UniProt P05164 49-745)”, the binding result in test [2] is given as “binds”.
Consider “MPO mutant C158A precursor expressed in stably transfected HEK cells (from UniProt P05164 49-745)”, for which the binding result in test [1] is on record as “binds”.
Consider “wild-type MPO precursor (90-kDa apoproMPO/proMPO) expressed in stably transfected HEK cells (from UniProt P05164 49-745)”, for which the binding result in test [2] was “binds”.
